No constants are given. Whether binding was seen depends on the method and setting. Sequences can lack the tags named with a protein.
Target: T1, MAP kinase 12 (MPK12), Col-0 version, split-ubiquitin two-hybrid fusion (Arabidopsis thaliana) (UniProt Q8GYQ5)
T1 sequence: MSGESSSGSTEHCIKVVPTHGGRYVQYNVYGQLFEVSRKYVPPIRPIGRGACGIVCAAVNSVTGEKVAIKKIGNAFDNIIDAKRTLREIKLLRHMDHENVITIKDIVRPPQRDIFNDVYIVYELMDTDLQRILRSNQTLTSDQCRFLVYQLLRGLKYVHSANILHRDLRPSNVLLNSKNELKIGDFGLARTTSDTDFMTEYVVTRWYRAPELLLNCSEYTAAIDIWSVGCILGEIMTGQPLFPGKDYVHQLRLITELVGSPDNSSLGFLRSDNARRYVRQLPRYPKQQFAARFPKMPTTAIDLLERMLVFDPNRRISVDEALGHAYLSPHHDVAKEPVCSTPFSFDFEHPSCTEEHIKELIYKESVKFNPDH
Experiment: two-hybrid

With “HAB1, split-ubiquitin two-hybrid prey (Arabidopsis thaliana) (enzyme)” the binding was “no binding”.
